Results are given in words; binding and its absence hold for the method and conditions named. Some binding calls cover weakened binding; strength is not graded here.
Target: StrepII-tagged ROR1-extracellular domain (human) (human) (UniProt Q01973)
Experiment: SPR isoaffinity plot, single concentration of ROR1-strep (40 nM per the text), purified parental mAb captured by anti-human Fc, triplicates

The chains behind the UniProt entries cited, without tags or fusion partners. Where a name states a change or a piece, a line headed by the entry shows the natural chain unless it says otherwise. A line that says so, or that is headed by a name, gives the form on record, which may keep a tag or linker.
StrepII-tagged ROR1-extracellular domain (human) (Q01973, form named): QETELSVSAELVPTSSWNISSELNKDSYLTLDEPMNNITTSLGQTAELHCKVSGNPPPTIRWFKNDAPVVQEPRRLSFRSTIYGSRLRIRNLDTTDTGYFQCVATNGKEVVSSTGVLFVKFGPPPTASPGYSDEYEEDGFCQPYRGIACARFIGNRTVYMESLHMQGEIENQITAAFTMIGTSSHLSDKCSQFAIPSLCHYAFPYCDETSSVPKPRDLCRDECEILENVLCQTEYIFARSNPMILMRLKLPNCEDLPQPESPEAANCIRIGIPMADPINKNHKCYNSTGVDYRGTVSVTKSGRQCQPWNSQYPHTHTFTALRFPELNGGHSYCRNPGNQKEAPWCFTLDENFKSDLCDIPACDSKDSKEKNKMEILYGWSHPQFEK

binding: binds
B1: chimeric mAb 2A2 (mouse variable regions, human IgG1/kappa constant regions) (antibody, V domains shown)
VH: QVQLQQSGAELVRPGASVTLSCKASGYTFSDYEMHWVIQTPVHGLEWIGAIDPETGGTAYNQKFKGKAILTADKSSSTAYMELRSLTSEDSAVYYCTGYYDYDSFTYWGQGTLVTVSA
VL: DIVMTQSQKIMSTTVGDRVSITCKASQNVDAAVAWYQQKPGQSPKLLIYSASNRYTGVPDRFTGSGSGTDFTLTISNMQSEDLADYFCQQYDIYPYTFGGGTKLEIK
notes: also called chim 2A2; parental mAb 2A2
